PubChem BioAssay AID686938 – Drosophila RNAi Screening Center | 2013
The screen tested about 23,000 reagents; shown is a random part of those with a known target gene and a result. Over the whole deposit, 75 (0.33%) got an active call. 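Raw plate signals without normalisation; calls rest on plate z-scores that were not deposited; ratio present for only 364 wells.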 A plus sign joins genes that one reagent is predicted to hit. Reagent sequences are not shown. The record does not give: the dose of the treatment.

- Aim: 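Fly genes required for calcium entry once internal stores are emptied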 (primary screen)
- Cell system: Drosophila S2R+ cells
- Knock-down reagent: long dsRNA against Drosophila genes, about 0.25 µg dsRNA per well, roughly 10,000 cells
- Duration: 5 days of knock-down before the calcium assay
- Challenge: thapsigargin (SERCA pump blocker) to empty calcium stores; entry signal taken 4 min after adding it
- Detection: 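Per-well fluo-4 fluorescence in two replicates, unnormalised, measured in resting cells and 4 min after store depletion by the SERCA blocker thapsigargin; ratio of the two present in few wells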
- Reading the numbers: calcium entry signal: higher = stronger calcium signal after store depletion; resting calcium signal: higher = higher resting calcium signal
- Call rule: 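Hit if the duplicate-averaged plate z-score for entry over resting signal is under −3; wells with weak total dye signal (Fmax z < −2) or more than 5 off-targets removed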
- Calls: active = strongly reduced calcium entry; inactive = no strong reduction

target	amplicon	calcium entry signal, replicate 1 (fluorescence units)	calcium entry signal, replicate 2 (fluorescence units)	resting calcium signal, replicate 1 (fluorescence units)	resting calcium signal, replicate 2 (fluorescence units)	outcome
CG4629	DRSC00659	4.20e7	4.43e7	1.86e7	1.91e7	inactive
Alg10	DRSC10892	2.94e7	4.77e7	1.47e7	2.09e7	inactive
Gr89a	DRSC15023	3.06e7	5.20e7	1.70e7	4.94e7	inactive
GCC185	DRSC15493	3.80e7	3.29e7	1.91e7	1.65e7	inactive
Ankrd49	DRSC01894	4.01e7	2.44e7	1.85e7	1.22e7	inactive
Gs2	DRSC20250	2.93e7	3.57e7	1.41e7	1.58e7	inactive
meep	DRSC07948	4.57e7	4.63e7	2.26e7	1.98e7	inactive
CG13786	DRSC02289	3.81e7	3.55e7	1.94e7	1.65e7	inactive
CG18371	DRSC06733	3.70e7	3.42e7	1.83e7	1.57e7	inactive
zfh2	DRSC17178	2.85e7	3.09e7	1.61e7	1.60e7	inactive
lic	DRSC20347	3.60e7	3.67e7	1.63e7	1.82e7	inactive
CG15525	DRSC15062	3.94e7	5.59e7	2.02e7	2.56e7	inactive
mbc	DRSC16995	4.99e7	5.76e7	2.33e7	2.43e7	inactive
His-Psi:CR31616 + His-Psi:CR31615	DRSC03760	1.98e7	4.01e7	1.19e7	1.79e7	inactive
CycK	DRSC03714	3.12e7		1.79e7		inactive
CG12895	DRSC06210	3.71e7	4.39e7	1.79e7	1.88e7	inactive
CR10991	DRSC12156	4.50e7	3.76e7	2.31e7	1.81e7	inactive
Rh6	DRSC16823	2.36e7	2.53e7	1.20e7	3.31e7	inactive
CG9399	DRSC16488	2.93e7	3.29e7	1.49e7	1.69e7	inactive
tnc	DRSC14647	4.49e7	5.94e7	2.04e7	2.44e7	inactive
P32	DRSC06988	3.27e7	2.90e7	1.54e7	1.49e7	inactive
Grasp65	DRSC10917	3.11e7	5.04e7	1.56e7	2.29e7	inactive
Coq6	DRSC03040	4.24e7		2.85e7		inactive
Tim17a1	DRSC14184	3.16e7	3.04e7	1.57e7	1.65e7	inactive
CG33453	DRSC05782	3.89e7	3.92e7	1.81e7	2.01e7	inactive
CG5969	DRSC11789	3.23e7	3.43e7	2.71e7	1.85e7	inactive
Rab4	DRSC07524	3.19e7	3.15e7	1.51e7	1.56e7	inactive
Hsp83	DRSC08664	3.06e7	2.48e7	1.98e7	1.52e7	inactive
CG13054	DRSC09935	3.30e7	5.93e7	1.76e7	2.11e7	inactive
CG15219	DRSC03715	6.74e7	4.91e7	2.99e7	1.86e7	inactive
CG5674	DRSC02874	4.64e7	3.90e7	2.23e7	2.00e7	inactive
CG5674	DRSC23176	5.51e7	3.76e7	2.59e7	1.73e7	inactive
CG10474	DRSC05993	4.22e7	4.74e7	1.87e7	2.18e7	inactive
nw	DRSC06451	5.48e7	4.59e7	2.33e7	2.22e7	inactive
nw	DRSC06749	2.96e7	2.84e7	1.31e7	1.46e7	inactive
nw	DRSC06896	4.96e7	4.84e7	2.16e7	2.22e7	inactive
CG1239	DRSC12204	3.02e7	3.61e7	1.37e7	1.54e7	inactive
CG43182	DRSC17668	4.23e7	3.89e7	2.35e7	1.76e7	inactive
EMC8-9	DRSC04380	3.94e7		1.94e7		inactive
Cpr65Aw	DRSC08794	4.20e7	2.83e7	1.86e7	1.38e7	inactive
CG5721	DRSC06945	3.80e7	3.46e7	1.83e7	1.73e7	inactive
CG33919	DRSC04940	3.24e7	6.43e7	1.63e7	2.81e7	inactive
Cdc42	DRSC20228	3.64e7	3.18e7	1.68e7	1.24e7	inactive
CG11634	DRSC03700	3.13e7	4.72e7	1.51e7	1.97e7	inactive
CG31404	DRSC15497	3.72e7	3.81e7	4.88e7	1.68e7	inactive

Look-ups from the list.
Under “calcium entry signal, replicate 1 (fluorescence units)”, Rab4 [DRSC07524] reads 3.19e7
Entry for CG5721 [DRSC06945] in “outcome”: inactive
Result for Ankrd49 [DRSC01894] in “calcium entry signal, replicate 1 (fluorescence units)”: 4.01e7
For “outcome”, His-Psi:CR31616 + His-Psi:CR31615 [DRSC03760] shows inactive
For “calcium entry signal, replicate 2 (fluorescence units)”, CG33919 [DRSC04940] reads 6.43e7
Value of Alg10 [DRSC10892] under “calcium entry signal, replicate 1 (fluorescence units)”: 2.94e7

The results go on.
target	amplicon	calcium entry signal, replicate 1 (fluorescence units)	calcium entry signal, replicate 2 (fluorescence units)	resting calcium signal, replicate 1 (fluorescence units)	resting calcium signal, replicate 2 (fluorescence units)	outcome
Awh	DRSC08140	3.61e7	4.43e7	1.94e7	1.90e7	inactive
dre4	DRSC08714	1.58e7	1.86e7	9.58e6	1.03e7	inactive
Rab35	DRSC20691	8.29e7	7.23e7	5.52e7	5.16e7	inactive
lva	DRSC18403	5.31e7	4.83e7	2.25e7	2.17e7	inactive
Pss	DRSC11757	2.73e7	3.98e7	1.28e7	1.70e7	inactive
Adck5	DRSC10890	2.55e7	4.79e7	1.32e7	1.99e7	inactive
CG9068	DRSC07329	5.09e7	5.31e7	2.17e7	2.60e7	inactive
Grik	DRSC15846	5.01e7	4.31e7	2.40e7	1.91e7	inactive
Grik	DRSC15847	3.76e7	4.34e7	6.52e7	1.95e7	inactive
ATPsynepsilonL	DRSC14548	2.68e7	2.73e7	1.34e7	1.47e7	inactive
CG42820	DRSC02265	4.64e7	5.51e7	2.04e7	2.62e7	inactive
CG43326 + CG43325	DRSC04157	3.28e7	3.86e7	1.75e7	1.70e7	inactive
CG8204	DRSC07106	3.49e7	3.21e7	1.75e7	1.55e7	inactive
SF1	DRSC16844	2.72e7	3.17e7	1.44e7	5.31e7	inactive
CG9114	DRSC20155	2.17e7	2.27e7	1.20e7	1.06e7	inactive
Had2	DRSC05971	3.87e7	4.17e7	1.66e7	1.94e7	inactive
lbk	DRSC07178	3.18e7	3.09e7	1.49e7	1.53e7	inactive
Start1	DRSC04384	4.58e7		2.24e7		inactive
CG12016 + Dpm2	DRSC08224	3.14e7	2.16e7	2.28e7	1.12e7	inactive
Nep5	DRSC16004	3.09e7	3.55e7	1.37e7	1.66e7	inactive
mTerf5	DRSC16209	4.40e7	4.08e7	1.95e7	1.81e7	inactive
CG12499	DRSC14521	2.09e7	2.21e7	6.95e7	1.25e7	inactive
Adgf-A2	DRSC09507	4.16e7	3.35e7	1.90e7	1.72e7	inactive
pad	DRSC14227	3.61e7	5.16e7	1.85e7	7.20e7	inactive
dpr3	DRSC00395	3.23e7	3.82e7	1.58e7	1.83e7	inactive
dpr3	DRSC00396	3.03e7	3.64e7	1.41e7	1.77e7	inactive
dpr3	DRSC21369	2.26e7	2.80e7	1.34e7	1.57e7	inactive
CG3777	DRSC18489	4.58e7	3.06e7	2.41e7	1.56e7	inactive
Cyp4p1	DRSC07372	4.71e7	4.00e7	1.95e7	1.70e7	inactive
CG34200	DRSC04804	2.67e7	4.99e7	1.42e7	2.11e7	inactive
